Test results published in patent US20100092453A1, “Method of producing porous microparticles” (priority 2006, published 2010).
At least one compound was matched to its structure with a doubt left.

Columns and labels:
[1] = Density measurements (bulk, tap, Carr's compressibility index); type: physicochemical
Method: Dublin 12) with a funnel. The weight of the powder required to fill the 1 ml graduated syringe was recorded to calculate bρ. […] The resultant volume was recorded [NT]ρ. Each measurement was performed in triplicate. The Carr's compressibility index of some of the systems was calculated from the following equation: compressibility index(%)=[(tap density-bulk density)/tap density]×100 Lower values of the index are desirable as they indicate better flow.

[2] = Particle size measurement by laser diffraction (Malvern Mastersizer 2000); type: physicochemical; conditions: air pressure not stated
[3] = In vitro dry powder inhaler deposition, Andersen Cascade Impactor; conditions: budesonide systems, Table 1
Method: The pulmonary deposition of the dry powders was investigated using an Andersen Cascade Impactor (ACI) (1 ACFM Eight Stage Non-Viable Cascade Impactor, Graseby Andersen, Atlanta, Ga.). […] Size 3 hard gelatin capsules (Farillon Ltd., U.K.) were filled to approximately 50% with the dry powder (approximately 25 mg of powder). […] The amount of powder deposited on each stage of the impactor was determined by weight, UV analysis or HPLC analysis.

## CCCC1O[C@@H]2C[C@H]3[C@@H]4CCC5=CC(=O)C=C[C@]5(C)[C@H]4[C@@H](O)C[C@]3(C)[C@]2(C(=O)CO)O1 (some centres unmarked) [Micronised budesonide, budesonide]
[1]
  bulk density: 0.18 g/mL
  tap density: 0.30 g/mL
[2]
  median particle size (MD): 1.4 μm
[3]
  GSD: 3.28 μm
  MMAD: 3.67 μm
